PMC7419011
No constants are given. Whether binding was seen depends on the method and setting. Binding calls can cover weak binding; strength is not graded here. Tags and fused reporters may be left off the sequences shown. For part of these data: Binding seen in cells or lysates may run through a third protein.

Assays:
[1] = target: T1, TGB1-YFPc (TGB1 fused with the C-terminal half of YFP, 35S promoter) (Barley stripe mosaic virus) (UniProt P04867); test: split reporter; BiFC, YFPn and YFPc fusions under the 35S promoter co-expressed in N. benthamiana leaves by agroinfiltration, confocal microscopy at 3 dpi
T1 sequence: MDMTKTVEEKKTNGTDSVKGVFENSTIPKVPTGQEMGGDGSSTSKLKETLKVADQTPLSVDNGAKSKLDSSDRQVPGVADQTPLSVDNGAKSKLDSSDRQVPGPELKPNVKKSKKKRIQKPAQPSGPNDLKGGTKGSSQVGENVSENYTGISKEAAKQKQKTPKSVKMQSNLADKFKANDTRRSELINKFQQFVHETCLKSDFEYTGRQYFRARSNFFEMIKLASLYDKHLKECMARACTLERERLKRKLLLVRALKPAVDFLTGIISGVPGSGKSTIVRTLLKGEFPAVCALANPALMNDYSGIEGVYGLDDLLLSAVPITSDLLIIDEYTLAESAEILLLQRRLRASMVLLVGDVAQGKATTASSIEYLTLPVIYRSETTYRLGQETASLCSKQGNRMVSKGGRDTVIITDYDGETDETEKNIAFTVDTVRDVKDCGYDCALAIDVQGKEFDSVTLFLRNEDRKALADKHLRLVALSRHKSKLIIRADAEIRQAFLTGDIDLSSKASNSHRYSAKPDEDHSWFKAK

[2] = target: GST-γb (Barley stripe mosaic virus); test: pull-down; GST pull-down, 5 μg of GST- and His-tagged proteins in 600 μL binding buffer (50 mM Tris-HCl pH 8.0, 100 mM NaCl, 0.6% Triton X-100) 3 h at 4°C, with or without 10 μg RNase A, washes with 600 mM NaCl, Western blot with anti-His or anti-GST; both purified
[3] = target: GST-γb_(1-85) (Barley stripe mosaic virus); test: as above
[4] = target: BD-γb (γb fused to the Gal4 DNA binding domain) (Barley stripe mosaic virus); test: two-hybrid; Gal4 AD and BD fusions in Y187 or Gold yeast strains, mated, spotted in 10-fold dilutions on SD/-Trp-Leu and SD/-Trp-Leu-His-Ade (with X-α-Gal), 30°C
[5] = target: γb-3xFlag (BSMV γb with a C-terminal 3xFlag epitope, expressed from RNAγ_(γb-3xFlag)) (Barley stripe mosaic virus); test: co-IP; extract of BSMV-infected N. benthamiana leaves at 3 dpi (25 mM Tris-HCl pH 7.5, 150 mM NaCl, 0.5% NP40, 0.4% Triton X-100), anti-FLAG beads 3 h at 4°C, Western blot with anti-TGB1 or anti-γb; untagged virus as negative control

## γb-YFPn (γb fused with the N-terminal half of YFP, 35S promoter) (Barley stripe mosaic virus)
[1]
  binding: binds

B1: TGB1-His (protein, UniProt P04867 1-528)
chain: MDMTKTVEEKKTNGTDSVKGVFENSTIPKVPTGQEMGGDGSSTSKLKETLKVADQTPLSVDNGAKSKLDSSDRQVPGVADQTPLSVDNGAKSKLDSSDRQVPGPELKPNVKKSKKKRIQKPAQPSGPNDLKGGTKGSSQVGENVSENYTGISKEAAKQKQKTPKSVKMQSNLADKFKANDTRRSELINKFQQFVHETCLKSDFEYTGRQYFRARSNFFEMIKLASLYDKHLKECMARACTLERERLKRKLLLVRALKPAVDFLTGIISGVPGSGKSTIVRTLLKGEFPAVCALANPALMNDYSGIEGVYGLDDLLLSAVPITSDLLIIDEYTLAESAEILLLQRRLRASMVLLVGDVAQGKATTASSIEYLTLPVIYRSETTYRLGQETASLCSKQGNRMVSKGGRDTVIITDYDGETDETEKNIAFTVDTVRDVKDCGYDCALAIDVQGKEFDSVTLFLRNEDRKALADKHLRLVALSRHKSKLIIRADAEIRQAFLTGDIDLSSKASNSHRYSAKPDEDHSWFKAK
[2]
  binding: binds
[3]
  binding: binds

B2: AD-TGB1 aa 1–491 (domain or fragment, UniProt P04867 1-491)
chain: MDMTKTVEEKKTNGTDSVKGVFENSTIPKVPTGQEMGGDGSSTSKLKETLKVADQTPLSVDNGAKSKLDSSDRQVPGVADQTPLSVDNGAKSKLDSSDRQVPGPELKPNVKKSKKKRIQKPAQPSGPNDLKGGTKGSSQVGENVSENYTGISKEAAKQKQKTPKSVKMQSNLADKFKANDTRRSELINKFQQFVHETCLKSDFEYTGRQYFRARSNFFEMIKLASLYDKHLKECMARACTLERERLKRKLLLVRALKPAVDFLTGIISGVPGSGKSTIVRTLLKGEFPAVCALANPALMNDYSGIEGVYGLDDLLLSAVPITSDLLIIDEYTLAESAEILLLQRRLRASMVLLVGDVAQGKATTASSIEYLTLPVIYRSETTYRLGQETASLCSKQGNRMVSKGGRDTVIITDYDGETDETEKNIAFTVDTVRDVKDCGYDCALAIDVQGKEFDSVTLFLRNEDRKALADKHLRLVALSRHKSKLIIRADA
[4]
  binding: binds

B3: BSMV TGB1 (untagged, made during BSMV infection) (protein, UniProt P04867 1-528)
chain: MDMTKTVEEKKTNGTDSVKGVFENSTIPKVPTGQEMGGDGSSTSKLKETLKVADQTPLSVDNGAKSKLDSSDRQVPGVADQTPLSVDNGAKSKLDSSDRQVPGPELKPNVKKSKKKRIQKPAQPSGPNDLKGGTKGSSQVGENVSENYTGISKEAAKQKQKTPKSVKMQSNLADKFKANDTRRSELINKFQQFVHETCLKSDFEYTGRQYFRARSNFFEMIKLASLYDKHLKECMARACTLERERLKRKLLLVRALKPAVDFLTGIISGVPGSGKSTIVRTLLKGEFPAVCALANPALMNDYSGIEGVYGLDDLLLSAVPITSDLLIIDEYTLAESAEILLLQRRLRASMVLLVGDVAQGKATTASSIEYLTLPVIYRSETTYRLGQETASLCSKQGNRMVSKGGRDTVIITDYDGETDETEKNIAFTVDTVRDVKDCGYDCALAIDVQGKEFDSVTLFLRNEDRKALADKHLRLVALSRHKSKLIIRADAEIRQAFLTGDIDLSSKASNSHRYSAKPDEDHSWFKAK
[5]
  binding: binds

B4: AD-TGB1 (TGB1 fused to the Gal4 activation domain) (protein, UniProt P04867 1-528)
chain: MDMTKTVEEKKTNGTDSVKGVFENSTIPKVPTGQEMGGDGSSTSKLKETLKVADQTPLSVDNGAKSKLDSSDRQVPGVADQTPLSVDNGAKSKLDSSDRQVPGPELKPNVKKSKKKRIQKPAQPSGPNDLKGGTKGSSQVGENVSENYTGISKEAAKQKQKTPKSVKMQSNLADKFKANDTRRSELINKFQQFVHETCLKSDFEYTGRQYFRARSNFFEMIKLASLYDKHLKECMARACTLERERLKRKLLLVRALKPAVDFLTGIISGVPGSGKSTIVRTLLKGEFPAVCALANPALMNDYSGIEGVYGLDDLLLSAVPITSDLLIIDEYTLAESAEILLLQRRLRASMVLLVGDVAQGKATTASSIEYLTLPVIYRSETTYRLGQETASLCSKQGNRMVSKGGRDTVIITDYDGETDETEKNIAFTVDTVRDVKDCGYDCALAIDVQGKEFDSVTLFLRNEDRKALADKHLRLVALSRHKSKLIIRADAEIRQAFLTGDIDLSSKASNSHRYSAKPDEDHSWFKAK
[4]
  binding: binds

B5: AD-TGB1 with deletion of the N-terminal 105 aa (domain or fragment, UniProt P04867 122-528)
chain: AQPSGPNDLKGGTKGSSQVGENVSENYTGISKEAAKQKQKTPKSVKMQSNLADKFKANDTRRSELINKFQQFVHETCLKSDFEYTGRQYFRARSNFFEMIKLASLYDKHLKECMARACTLERERLKRKLLLVRALKPAVDFLTGIISGVPGSGKSTIVRTLLKGEFPAVCALANPALMNDYSGIEGVYGLDDLLLSAVPITSDLLIIDEYTLAESAEILLLQRRLRASMVLLVGDVAQGKATTASSIEYLTLPVIYRSETTYRLGQETASLCSKQGNRMVSKGGRDTVIITDYDGETDETEKNIAFTVDTVRDVKDCGYDCALAIDVQGKEFDSVTLFLRNEDRKALADKHLRLVALSRHKSKLIIRADAEIRQAFLTGDIDLSSKASNSHRYSAKPDEDHSWFKAK
[4]
  binding: no binding

B6: AD-TGB1 with C-terminal deletion to aa 113 (domain or fragment, UniProt P04867 1-113)
chain: MDMTKTVEEKKTNGTDSVKGVFENSTIPKVPTGQEMGGDGSSTSKLKETLKVADQTPLSVDNGAKSKLDSSDRQVPGVADQTPLSVDNGAKSKLDSSDRQVPGPELKPNVKKS
[4]
  binding: no binding

B7: AD-TGB1 with C-terminal deletion to aa 186 (domain or fragment, UniProt P04867 1-186)
chain: MDMTKTVEEKKTNGTDSVKGVFENSTIPKVPTGQEMGGDGSSTSKLKETLKVADQTPLSVDNGAKSKLDSSDRQVPGVADQTPLSVDNGAKSKLDSSDRQVPGPELKPNVKKSKKKRIQKPAQPSGPNDLKGGTKGSSQVGENVSENYTGISKEAAKQKQKTPKSVKMQSNLADKFKANDTRRSEL
[4]
  binding: no binding
